In the supplement of paper PMC10849652:
This is one part of the list. Residues, ends and D or L forms follow the SMILES beside them. *: point of attachment. Cbz = O=C(OCc1ccccc1)*

Sequences of proteins named here, by UniProt entry; tags and fusion partners are left off. A change or cut given only in a name is not applied to a line headed by its entry.
UniProt Q9BQ67, whole entry, looked up: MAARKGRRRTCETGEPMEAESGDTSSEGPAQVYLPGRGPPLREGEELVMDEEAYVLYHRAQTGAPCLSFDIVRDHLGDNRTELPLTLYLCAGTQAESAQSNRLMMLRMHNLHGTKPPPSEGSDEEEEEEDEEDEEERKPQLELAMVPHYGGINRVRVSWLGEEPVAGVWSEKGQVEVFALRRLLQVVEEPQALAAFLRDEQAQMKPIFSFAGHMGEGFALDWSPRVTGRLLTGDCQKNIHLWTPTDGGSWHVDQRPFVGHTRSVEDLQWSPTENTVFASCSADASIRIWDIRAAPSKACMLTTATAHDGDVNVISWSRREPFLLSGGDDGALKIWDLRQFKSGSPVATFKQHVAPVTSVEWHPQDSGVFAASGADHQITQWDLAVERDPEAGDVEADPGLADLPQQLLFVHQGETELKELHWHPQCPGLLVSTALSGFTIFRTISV
UniProt Q9HAV7: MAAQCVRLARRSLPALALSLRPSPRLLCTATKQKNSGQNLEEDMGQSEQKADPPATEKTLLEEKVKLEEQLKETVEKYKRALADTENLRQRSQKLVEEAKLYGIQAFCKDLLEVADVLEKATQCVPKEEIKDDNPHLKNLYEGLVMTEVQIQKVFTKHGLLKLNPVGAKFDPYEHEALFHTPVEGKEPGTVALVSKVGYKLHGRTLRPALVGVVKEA
UniProt Q14344, whole entry, looked up: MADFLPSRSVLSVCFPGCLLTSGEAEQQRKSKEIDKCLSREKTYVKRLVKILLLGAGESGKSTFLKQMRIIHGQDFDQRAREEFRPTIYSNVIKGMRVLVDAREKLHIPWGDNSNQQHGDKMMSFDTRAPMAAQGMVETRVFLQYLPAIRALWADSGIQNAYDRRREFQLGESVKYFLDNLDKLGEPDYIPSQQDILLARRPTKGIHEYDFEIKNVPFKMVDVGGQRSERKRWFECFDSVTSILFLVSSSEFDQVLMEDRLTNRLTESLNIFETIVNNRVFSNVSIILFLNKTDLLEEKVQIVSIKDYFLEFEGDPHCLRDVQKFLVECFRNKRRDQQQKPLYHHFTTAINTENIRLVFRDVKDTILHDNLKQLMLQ
UniProt Q86SX6: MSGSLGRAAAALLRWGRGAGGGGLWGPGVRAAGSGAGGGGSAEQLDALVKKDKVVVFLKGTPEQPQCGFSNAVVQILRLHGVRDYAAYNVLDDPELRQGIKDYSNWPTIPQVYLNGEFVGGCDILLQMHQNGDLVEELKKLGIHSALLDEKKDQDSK
UniProt Q8N954: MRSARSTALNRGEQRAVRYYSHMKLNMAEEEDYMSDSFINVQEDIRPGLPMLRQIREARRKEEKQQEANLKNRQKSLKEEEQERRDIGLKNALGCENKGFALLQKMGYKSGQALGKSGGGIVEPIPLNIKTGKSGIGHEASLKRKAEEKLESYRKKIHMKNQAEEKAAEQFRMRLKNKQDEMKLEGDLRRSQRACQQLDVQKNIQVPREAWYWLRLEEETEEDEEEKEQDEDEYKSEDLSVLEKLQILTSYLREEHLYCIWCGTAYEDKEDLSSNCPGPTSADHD
UniProt Q9HCN4, whole entry, looked up: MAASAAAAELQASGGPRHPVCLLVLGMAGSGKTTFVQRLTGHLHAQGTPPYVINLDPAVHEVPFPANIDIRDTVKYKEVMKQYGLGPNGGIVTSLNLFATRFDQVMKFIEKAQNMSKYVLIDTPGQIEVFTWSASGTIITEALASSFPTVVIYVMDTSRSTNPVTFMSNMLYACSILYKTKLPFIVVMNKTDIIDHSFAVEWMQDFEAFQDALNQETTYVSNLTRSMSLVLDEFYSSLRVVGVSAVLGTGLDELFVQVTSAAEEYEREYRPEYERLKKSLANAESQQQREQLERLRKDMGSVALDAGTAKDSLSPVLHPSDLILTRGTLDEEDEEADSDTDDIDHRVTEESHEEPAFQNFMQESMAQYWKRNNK
UniProt P17900: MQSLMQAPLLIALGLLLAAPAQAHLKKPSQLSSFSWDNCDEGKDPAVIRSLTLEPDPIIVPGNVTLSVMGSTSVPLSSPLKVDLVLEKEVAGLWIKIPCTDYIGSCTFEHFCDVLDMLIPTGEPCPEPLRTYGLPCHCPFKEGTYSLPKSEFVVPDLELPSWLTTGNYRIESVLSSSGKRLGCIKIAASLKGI
UniProt Q3T906: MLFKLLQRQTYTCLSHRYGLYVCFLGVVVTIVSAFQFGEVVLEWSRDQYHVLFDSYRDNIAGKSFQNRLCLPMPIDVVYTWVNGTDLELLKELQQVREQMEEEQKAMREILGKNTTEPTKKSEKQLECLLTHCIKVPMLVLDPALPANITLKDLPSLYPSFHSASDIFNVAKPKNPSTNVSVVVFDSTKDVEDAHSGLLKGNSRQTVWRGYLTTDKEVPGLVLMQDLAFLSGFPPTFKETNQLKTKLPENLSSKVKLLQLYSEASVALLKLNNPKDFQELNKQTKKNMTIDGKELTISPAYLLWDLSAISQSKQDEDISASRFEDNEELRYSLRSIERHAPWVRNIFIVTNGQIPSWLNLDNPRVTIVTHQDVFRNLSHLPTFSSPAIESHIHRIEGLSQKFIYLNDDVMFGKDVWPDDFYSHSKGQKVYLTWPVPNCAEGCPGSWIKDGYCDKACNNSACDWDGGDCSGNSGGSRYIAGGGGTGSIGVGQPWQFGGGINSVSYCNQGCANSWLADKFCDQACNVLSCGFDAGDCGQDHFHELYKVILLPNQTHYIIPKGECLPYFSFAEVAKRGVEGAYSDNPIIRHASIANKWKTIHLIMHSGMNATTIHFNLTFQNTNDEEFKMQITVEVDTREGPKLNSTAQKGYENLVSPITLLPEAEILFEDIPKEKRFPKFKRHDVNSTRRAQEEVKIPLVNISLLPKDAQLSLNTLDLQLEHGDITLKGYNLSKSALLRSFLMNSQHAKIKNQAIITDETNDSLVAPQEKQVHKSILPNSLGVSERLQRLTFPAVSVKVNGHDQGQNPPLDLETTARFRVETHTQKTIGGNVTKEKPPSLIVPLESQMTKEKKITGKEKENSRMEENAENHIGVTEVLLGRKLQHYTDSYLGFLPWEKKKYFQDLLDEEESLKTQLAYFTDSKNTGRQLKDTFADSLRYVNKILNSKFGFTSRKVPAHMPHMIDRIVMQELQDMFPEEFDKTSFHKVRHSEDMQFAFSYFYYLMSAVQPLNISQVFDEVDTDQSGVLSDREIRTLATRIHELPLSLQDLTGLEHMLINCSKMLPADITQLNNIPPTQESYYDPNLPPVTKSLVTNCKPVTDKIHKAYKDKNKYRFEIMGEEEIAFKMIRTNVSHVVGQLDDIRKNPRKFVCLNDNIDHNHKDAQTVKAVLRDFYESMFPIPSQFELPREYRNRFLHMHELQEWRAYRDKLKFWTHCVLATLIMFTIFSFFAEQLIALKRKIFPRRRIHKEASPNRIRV
UniProt Q9Y3E0: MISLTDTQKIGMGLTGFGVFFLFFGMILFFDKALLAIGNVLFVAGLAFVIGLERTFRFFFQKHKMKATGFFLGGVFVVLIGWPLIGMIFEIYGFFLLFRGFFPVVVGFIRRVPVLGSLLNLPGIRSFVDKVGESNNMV
UniProt P15586: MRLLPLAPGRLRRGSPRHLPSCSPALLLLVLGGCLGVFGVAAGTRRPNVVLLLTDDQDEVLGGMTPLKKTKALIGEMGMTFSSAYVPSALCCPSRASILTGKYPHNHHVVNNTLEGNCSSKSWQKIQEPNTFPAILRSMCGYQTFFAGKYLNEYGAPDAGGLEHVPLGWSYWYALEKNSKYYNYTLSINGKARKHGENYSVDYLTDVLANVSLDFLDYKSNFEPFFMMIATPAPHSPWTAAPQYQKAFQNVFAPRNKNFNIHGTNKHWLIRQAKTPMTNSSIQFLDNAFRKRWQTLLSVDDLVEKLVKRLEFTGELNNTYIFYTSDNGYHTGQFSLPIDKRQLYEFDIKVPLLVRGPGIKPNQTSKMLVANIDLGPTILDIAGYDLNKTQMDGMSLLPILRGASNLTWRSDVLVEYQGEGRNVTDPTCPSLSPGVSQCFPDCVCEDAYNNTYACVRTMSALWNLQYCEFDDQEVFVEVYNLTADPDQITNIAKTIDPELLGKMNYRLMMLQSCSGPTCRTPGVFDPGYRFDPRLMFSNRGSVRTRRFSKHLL
UniProt Q8N335: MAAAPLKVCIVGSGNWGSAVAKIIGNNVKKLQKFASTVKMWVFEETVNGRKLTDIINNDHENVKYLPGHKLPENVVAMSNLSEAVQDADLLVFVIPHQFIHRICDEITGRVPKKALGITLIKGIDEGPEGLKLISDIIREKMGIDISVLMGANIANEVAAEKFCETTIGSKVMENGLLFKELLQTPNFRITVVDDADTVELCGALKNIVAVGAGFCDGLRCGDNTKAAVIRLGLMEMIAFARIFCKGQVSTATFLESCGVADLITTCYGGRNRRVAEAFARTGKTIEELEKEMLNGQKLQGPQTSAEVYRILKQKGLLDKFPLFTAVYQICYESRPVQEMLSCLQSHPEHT
UniProt Q7Z2K8: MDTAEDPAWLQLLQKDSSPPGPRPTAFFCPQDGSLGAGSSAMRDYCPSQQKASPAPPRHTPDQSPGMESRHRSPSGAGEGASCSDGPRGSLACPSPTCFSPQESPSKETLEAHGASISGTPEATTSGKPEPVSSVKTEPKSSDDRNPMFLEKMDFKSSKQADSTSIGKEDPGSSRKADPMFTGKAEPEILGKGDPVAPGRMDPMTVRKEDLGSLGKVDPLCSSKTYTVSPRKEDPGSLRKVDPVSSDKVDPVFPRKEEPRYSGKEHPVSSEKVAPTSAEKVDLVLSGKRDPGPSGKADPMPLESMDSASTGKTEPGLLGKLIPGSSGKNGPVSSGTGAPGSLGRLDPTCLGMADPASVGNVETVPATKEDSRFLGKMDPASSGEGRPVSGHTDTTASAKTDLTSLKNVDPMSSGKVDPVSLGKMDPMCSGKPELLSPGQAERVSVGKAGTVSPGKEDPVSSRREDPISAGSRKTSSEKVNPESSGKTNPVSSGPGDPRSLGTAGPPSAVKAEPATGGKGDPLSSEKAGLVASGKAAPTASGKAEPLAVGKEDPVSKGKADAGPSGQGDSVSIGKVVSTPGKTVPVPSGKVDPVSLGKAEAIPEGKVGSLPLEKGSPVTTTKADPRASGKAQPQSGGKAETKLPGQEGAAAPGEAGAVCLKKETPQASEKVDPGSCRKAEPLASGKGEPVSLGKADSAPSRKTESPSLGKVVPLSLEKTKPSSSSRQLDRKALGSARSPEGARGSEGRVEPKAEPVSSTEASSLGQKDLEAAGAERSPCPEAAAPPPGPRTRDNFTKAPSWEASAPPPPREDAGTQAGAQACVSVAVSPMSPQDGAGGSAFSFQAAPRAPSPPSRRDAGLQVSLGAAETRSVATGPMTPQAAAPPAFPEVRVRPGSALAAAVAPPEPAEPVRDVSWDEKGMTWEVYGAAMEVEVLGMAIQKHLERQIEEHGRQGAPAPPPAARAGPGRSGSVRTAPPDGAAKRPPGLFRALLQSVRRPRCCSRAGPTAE
UniProt Q92896: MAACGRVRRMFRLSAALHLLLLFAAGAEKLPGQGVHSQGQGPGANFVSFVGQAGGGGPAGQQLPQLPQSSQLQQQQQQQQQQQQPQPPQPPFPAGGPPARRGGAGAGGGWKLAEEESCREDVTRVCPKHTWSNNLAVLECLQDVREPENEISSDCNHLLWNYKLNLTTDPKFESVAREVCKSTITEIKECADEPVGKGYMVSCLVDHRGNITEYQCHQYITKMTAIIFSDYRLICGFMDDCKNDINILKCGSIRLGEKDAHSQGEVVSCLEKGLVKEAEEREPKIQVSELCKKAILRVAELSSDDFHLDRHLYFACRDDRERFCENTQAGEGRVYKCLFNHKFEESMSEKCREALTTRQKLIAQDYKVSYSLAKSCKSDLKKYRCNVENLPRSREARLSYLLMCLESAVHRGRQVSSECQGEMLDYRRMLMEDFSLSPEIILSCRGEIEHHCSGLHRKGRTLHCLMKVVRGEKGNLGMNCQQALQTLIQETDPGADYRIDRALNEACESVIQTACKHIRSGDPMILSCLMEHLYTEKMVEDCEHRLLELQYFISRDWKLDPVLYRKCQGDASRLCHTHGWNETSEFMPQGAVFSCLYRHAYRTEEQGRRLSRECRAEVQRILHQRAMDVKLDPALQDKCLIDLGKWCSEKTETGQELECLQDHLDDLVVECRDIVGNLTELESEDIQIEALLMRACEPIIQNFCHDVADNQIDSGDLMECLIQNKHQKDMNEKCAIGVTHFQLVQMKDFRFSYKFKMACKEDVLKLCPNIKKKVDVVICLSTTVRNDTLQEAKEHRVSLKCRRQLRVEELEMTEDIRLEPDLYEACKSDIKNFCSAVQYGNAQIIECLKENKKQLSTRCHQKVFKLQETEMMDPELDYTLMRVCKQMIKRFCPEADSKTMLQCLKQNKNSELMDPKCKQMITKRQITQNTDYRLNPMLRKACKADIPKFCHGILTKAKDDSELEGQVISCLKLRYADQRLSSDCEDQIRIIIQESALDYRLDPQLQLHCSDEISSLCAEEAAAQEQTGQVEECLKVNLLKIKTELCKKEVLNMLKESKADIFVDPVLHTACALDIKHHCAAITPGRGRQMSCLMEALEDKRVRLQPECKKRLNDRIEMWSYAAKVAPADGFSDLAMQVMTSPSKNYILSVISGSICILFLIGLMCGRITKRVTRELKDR

Columns and labels:
Assay in all cases: log2 fold change, soluble protein after heating vs DMSO (PISA); higher = thermal stabilisation; K562 cells, 10 uM, 30 min; active = over 0.2 and 3.5 SD of the protein, either way, in both replicates (recomputed)
[1] = compound: C1COCCN1CCN2C3=CC=CC=C3N=C2NC(=O)C4=CC(=CC=C4)[N+](=O)[O-] [IRAK-1-4 Inhibitor I]
Method in brief: (§1)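 K562 cells at 2×10^6 cells/mL were exposed to 10 μM compound for 30 min, then aliquots were heated for 3 min across 48°C-58°C, pooled, and extracted in PBS containing 0.5% NP-40 at 4°C. The supernatant after 21,000xg for 90 min was taken as soluble protein and measured by TMTpro 16plex LC-MS/MS with channel sums equalised. Thermal stability is reported relative to control samples, with values from duplicates. Fold changes are given on a log2 scale.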

[2] = compound: C=CC(=O)N1CCC[C@@H](n2nc(-c3ccc(Oc4ccccc4)cc3)c3c(N)ncnc32)C1 [ibrutinib]
Method in brief: as §1

[3] = compound: CC(=O)c1cnc2ccc(-c3cc(Cl)c(O)c(Cl)c3)nc2c1N[C@H]1CC[C@H](CN(C)C)CC1
Method in brief: as §1

[4] = compound: CC(C)(C)Cn1c(N)nc2ccc(-c3[nH]c(C(C)(C)C)nc3-c3ccc(F)cc3)nc21 [ralimetinib]
Method in brief: as §1

[5] = compound: CC(C)(O)CC(=O)NCCn1ccc2ncnc(Nc3ccc(Oc4cccc(C(F)(F)F)c4)c(Cl)c3)c21
Method in brief: as §1

[6] = compound: CC(C)C1=C2N=C(C=C(N2N=C1)NCC3=CC=CC=C3)NCCCCCCN
Method in brief: as §1

[7] = compound: CC(C)C[C@@H](C=O)NC(=O)[C@H](CC(C)C)NC(=O)[C@H](CC(C)C)NC(=O)OCc1ccccc1
Method in brief: as §1

[8] = compound: CC(C)N(C[C@H]1O[C@@H](n2cnc3c(N)ncnc32)[C@H](O)[C@@H]1O)[C@H]1C[C@@H](CCc2nc3cc(C(C)(C)C)ccc3[nH]2)C1 [pinometostat]
Method in brief: as §1

[9] = compound: CC1=C(C(CC(=O)N1)C2=CC=C(C=C2)C(F)(F)F)C(=O)NC3=C(C=C4C(=C3)C=NN4)F
Method in brief: as §1

[10] = compound: CC1=C(C2=C(C=C1)C(=O)C3=CC=CC=C3N2CCCN)C
Method in brief: as §1

[11] = compound: CC1=C(C=C(C=C1)NC(=O)C2=CC(=CC=C2)C(C)(C)C#N)NC3=CC4=C(C=C3)N=CN(C4=O)C
Method in brief: as §1

[12] = compound: CC1=C(C=C(C=C1)NC(=O)C2=CC(=CC=C2)N(C)C)NC(=O)C3=CC=C(C=C3)O
Method in brief: as §1

[13] = compound: CC1=CC=C(C=C1)SC2=C3C=C(SC3=CN=C2)C(=O)N
Method in brief: as §1

[14] = compound: CC1=NC(=CC=C1)C2=C(N=C(N2)C(C)(C)C)C3=CC4=NC=CN=C4C=C3
Method in brief: as §1

[15] = compound: CCCCN(Cc1ccc(C(=O)NO)cc1)C(=O)Nc1ccccc1 [Nexturastat A]
Method in brief: as §1

[16] = compound: CCCS(=O)(=O)Nc1ccc(F)c(C(=O)c2c[nH]c3ncc(-c4ccc(Cl)cc4)cc23)c1F [vemurafenib]
Method in brief: as §1

[17] = compound: CCCS(=O)(=O)Nc1ccc(F)c(C(=O)c2c[nH]c3ncc(Cl)cc23)c1F
Method in brief: as §1

[18] = compound: CCCc1cc(C)[nH]c(=O)c1CNC(=O)c1cc(-c2ccnc(N3CCN(C)CC3)c2)cc2c1cnn2C(C)C
Method in brief: as §1

[19] = compound: CCN(CC)Cc1ccc2cc(COC(=O)Nc3ccc(C(=O)NO)cc3)ccc2c1 [givinostat]
Method in brief: as §1

[20] = compound: CCN(CCCOc1ccc2c(Nc3cc(CC(=O)Nc4cccc(F)c4)[nH]n3)ncnc2c1)CCOP(=O)(O)O [barasertib]
Method in brief: as §1

Measured: log2 fold change

GRWD1 (UniProt Q9BQ67)
inactive: [1] -0.183 | [2] 0.084 | [3] 0.154 | [4] 0.207 | [5] 0 | [6] -0.081 | [7] 0.137 | [8] 0.222 | [9] 0.066 | [10] -0.289 | [11] -0.078 | [12] -0.001 | [13] -0.067 | [14] -0.114 | [15] 0.2 | [16] -0.133 | [17] -0.091 | [18] 0.154 | [19] 0.009 | [20] -0.051

GRPEL1 (UniProt Q9HAV7)
inactive: [1] 0.02 | [2] -0.026 | [3] 0.005 | [4] -0.055 | [5] 0 | [6] -0.006 | [7] -0.009 | [8] -0.062 | [9] -0.017 | [10] 0.027 | [11] 0.059 | [12] -0.028 | [13] 0.002 | [14] 0.031 | [15] -0.091 | [16] 0.032 | [17] 0.003 | [18] 0.081 | [19] -0.016 | [20] 0.019

GNA13 (UniProt Q14344)
inactive: [1] 0.057 | [2] -0.045 | [3] -0.105 | [4] -0.02 | [5] 0.01 | [6] 0.162 | [7] 0.012 | [8] -0.028 | [9] -0.023 | [10] 0.086 | [11] 0.01 | [12] 0 | [13] -0.015 | [14] -0.001 | [15] -0.014 | [16] 0.015 | [17] -0.006 | [18] 0.028 | [19] 0.001 | [20] 0.006

Random excerpt: 2 entries already listed.
GRPEL1 (UniProt Q9HAV7)
inactive: [1] 0.02 | [2] -0.026 | [3] 0.005 | [4] -0.055 | [5] 0 | [6] -0.006 | [7] -0.009 | [8] -0.062 | [9] -0.017 | [10] 0.027 | [11] 0.059 | [12] -0.028 | [13] 0.002 | [14] 0.031 | [15] -0.091 | [16] 0.032 | [17] 0.003 | [18] 0.081 | [19] -0.016 | [20] 0.019

GRWD1 (UniProt Q9BQ67)
inactive: [1] -0.183 | [2] 0.084 | [3] 0.154 | [4] 0.207 | [5] 0 | [6] -0.081 | [7] 0.137 | [8] 0.222 | [9] 0.066 | [10] -0.289 | [11] -0.078 | [12] -0.001 | [13] -0.067 | [14] -0.114 | [15] 0.2 | [16] -0.133 | [17] -0.091 | [18] 0.154 | [19] 0.009 | [20] -0.051

Going on with the list.

GLRX5 (UniProt Q86SX6)
inactive: [1] 0.105 | [2] 0.051 | [3] 0.131 | [4] -0.068 | [5] -0.101 | [6] 0.03 | [7] -0.005 | [8] -0.1 | [9] 0.11 | [10] 0.143 | [11] 0.027 | [12] -0.176 | [13] 0.096 | [14] -0.178 | [15] -0.007 | [16] -0.053 | [17] 0.028 | [18] -0.056 | [19] -0.039 | [20] 0.036

GPATCH11 (UniProt Q8N954)
inactive: [1] -0.018 | [2] -0.053 | [3] -0.04 | [4] -0.026 | [5] 0.015 | [6] 0.197 | [7] 0.031 | [8] -0.047 | [9] 0.038 | [10] -0.019 | [11] -0.017 | [12] -0.015 | [13] 0.013 | [14] 0.1 | [15] 0.042 | [16] -0.022 | [17] -0.006 | [18] -0.031 | [19] -0.111 | [20] 0.035

GPN1 isoform 5 (UniProt Q9HCN4)
inactive: [1] 0.019 | [2] 0.04 | [3] -0.024 | [4] 0.026 | [5] 0.043 | [6] 0.027 | [7] 0.023 | [8] -0.031 | [9] 0.036 | [10] 0.076 | [11] -0.025 | [12] -0.015 | [13] 0.028 | [14] -0.006 | [15] -0.013 | [16] -0.044 | [17] -0.016 | [18] -0.043 | [19] 0.004 | [20] 0.008

GOLGA4 isoform 5 (UniProt Q13439)
inactive: [1] -0.003 | [2] -0.08 | [3] -0.124 | [4] -0.067 | [5] 0.013 | [6] -0.073 | [7] 0.13 | [8] 0.018 | [9] 0.169 | [10] -0.025 | [11] -0.07 | [12] 0.024 | [13] -0.085 | [14] 0.006 | [15] 0.122 | [16] -0.029 | [17] 0 | [18] 0.048 | [19] 0.13 | [20] 0.103

GM2A (UniProt P17900)
inactive: [1] 0.007 | [2] -0.003 | [3] -0.039 | [4] -0.054 | [5] 0.017 | [6] 0.114 | [7] -0.05 | [8] -0.045 | [9] -0.013 | [10] 0.136 | [11] -0.051 | [12] 0.085 | [13] 0.082 | [14] -0.077 | [15] -0.031 | [16] -0.02 | [17] 0.015 | [18] -0.013 | [19] 0 | [20] 0.105

GPHN isoform 2 (UniProt Q9NQX3)
inactive: [1] 0.014 | [2] -0.001 | [3] 0.007 | [4] -0.071 | [5] -0.011 | [6] 0.071 | [7] -0.001 | [8] -0.021 | [9] 0.007 | [10] 0.03 | [11] -0.023 | [12] 0.004 | [13] 0.008 | [14] -0.002 | [15] -0.044 | [16] 0.006 | [17] -0.01 | [18] -0.003 | [19] -0.003 | [20] 0.005

GNPTAB (UniProt Q3T906)
inactive: [1] -0.092 | [2] 0.115 | [3] -0.051 | [4] -0.066 | [5] -0.061 | [6] -0.043 | [7] 0.015 | [8] 0.004 | [9] 0.075 | [10] 0.019 | [11] 0.157 | [12] 0.047 | [13] 0.001 | [14] 0.005 | [15] 0.072 | [16] -0.126 | [17] -0.005 | [18] 0.102 | [19] 0.01 | [20] 0.046

GOLT1B (UniProt Q9Y3E0)
inactive: [1] -0.005 | [2] -0.06 | [3] 0.046 | [4] -0.002 | [5] -0.002 | [6] -0.003 | [7] -0.118 | [8] -0.023 | [9] 0.02 | [10] -0.032 | [11] 0.029 | [12] 0.082 | [13] 0.021 | [14] 0.006 | [15] -0.062 | [16] 0.015 | [17] 0.021 | [18] -0.028 | [19] -0.022 | [20] 0.044

GNS (UniProt P15586)
inactive: [1] 0.023 | [2] -0.011 | [3] 0.011 | [4] -0.04 | [5] 0.065 | [6] -0.079 | [7] 0.025 | [8] -0.025 | [10] -0.01 | [11] -0.021 | [12] 0.112 | [13] 0.044 | [14] 0.026 | [15] -0.03 | [16] 0.023 | [17] -0.005 | [18] 0.003 | [19] 0.011 | [20] -0.004

GLOD4 isoform 2 (UniProt Q9HC38)
inactive: [1] 0 | [2] -0.025 | [3] 0.006 | [4] -0.004 | [5] -0.067 | [6] -0.097 | [7] 0.005 | [8] -0.027 | [9] -0.017 | [10] 0.036 | [11] 0.023 | [12] -0.023 | [13] 0.011 | [14] 0.063 | [15] -0.085 | [16] 0.017 | [17] 0.066 | [18] 0.008 | [19] -0.002 | [20] 0.009

GPD1L (UniProt Q8N335)
inactive: [1] 0.011 | [2] 0.065 | [3] -0.122 | [4] -0.028 | [5] 0.002 | [6] 0.034 | [7] 0.025 | [8] -0.038 | [9] 0.002 | [10] 0.065 | [11] -0.021 | [12] -0.015 | [13] 0.016 | [14] 0 | [15] -0.121 | [16] 0.034 | [17] -0.023 | [18] -0.03 | [19] -0.024 | [20] 0.051

GPRIN1 (UniProt Q7Z2K8)
inactive: [1] 0.03 | [2] -0.007 | [3] -0.017 | [4] -0.015 | [5] -0.014 | [6] 0.136 | [7] -0.017 | [8] -0.007 | [9] 0.013 | [10] 0.02 | [11] 0.028 | [12] -0.029 | [13] -0.048 | [14] 0.005 | [15] -0.031 | [16] -0.016 | [17] -0.011 | [18] -0.036 | [19] -0.026 | [20] -0.015

GLG1 isoform 2 (UniProt Q92896)
inactive: [1] 0.017 | [2] 0.022 | [3] 0.009 | [4] -0.053 | [5] -0.015 | [6] -0.032 | [7] 0 | [8] -0.047 | [9] 0.022 | [10] -0.006 | [11] -0.027 | [12] 0.008 | [13] 0.102 | [14] 0.031 | [15] -0.061 | [16] -0.014 | [17] 0.02 | [18] -0.008 | [19] 0.005 | [20] 0.015
